Experimental data published in patent US20230227568A1 (Pieris, published 2023).

Protein sequences, listed by entry. Tags and fused reporters are not part of them.
UniProt A9YYE7, entry or part of it limits assumed: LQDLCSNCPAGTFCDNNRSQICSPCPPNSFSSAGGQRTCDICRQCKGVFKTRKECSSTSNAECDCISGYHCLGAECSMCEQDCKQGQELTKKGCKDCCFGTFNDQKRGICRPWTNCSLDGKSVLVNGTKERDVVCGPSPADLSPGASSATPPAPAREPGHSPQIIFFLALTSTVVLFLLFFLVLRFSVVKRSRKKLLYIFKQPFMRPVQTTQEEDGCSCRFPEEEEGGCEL

What was measured:
human 4-1BB on cells = target: T1, human 4-1BB on cells (human, UniProt Q07011 24-255); assay: flow cytometry, Flp-In-CHO::hu4-1BB cells
T1 construct: whole, on cells; Stably transfected CHO cells (flow cytometry) and bought Jurkat reporter cells (bioassay); also called Flp-In-CHO::hu4-1BB; human 4-1BB-expressing CHO cells
Method: (§1) CHO cells were stably transfected with human 4-1BB, cynomolgus 4-1BB, or a mock control using the Flp-In system (Life Technologies) according to the manufacturer's instructions. Transfected CHO cells were maintained in Ham's F12 medium (Life Technologies) supplemented with 10% Fetal Calf Serum (Biochrom) and 500 μg/ml Hygromycin B (Roth). Cells were cultured in cell culture flasks according to manufacturer's instruction (37° C., 5% CO₂ atmosphere).
(§2) 5×10⁴ cells per well were incubated for 1 h in ice-cold PBS containing 5% fetal calf serum (PBS-FCS). A dilution series of the tested multimeric proteins (SEQ ID NOs: 38-44 and 46-55), the 4-1BB-targeting lipocalin mutein as included in the multimeric proteins (SEQ ID NO: 64) or the GPC3-targeting lipocalin SEQ ID NO: 90 were added to the cells and incubated for 1 h on ice. Cells were washed twice with PBS and then incubated with a rabbit anti-NGAL or a goat anti-human IgG labeled with fluorescent dye Alexa 488 for 30 min on ice. Human IgG4 isotype (SEQ ID NOs: 29 and 30) and lipocalin mutein SEQ ID NO: 8 were tested as a negative control. Cells were subsequently washed and analyzed using iQue Flow cytometer (Intellicyte Screener). Mean geometric fluorescent signals were plotted and fitted with Graphpad software using nonlinear regression (shared bottom, four parameters, variable slope).

[1] = target: T2, recombinant hu4-1BB-His (human 4-1BB with a C-terminal polyhistidine tag, R&D Systems) (human, UniProt Q07011 24-186); assay: ELISA, hu4-1BB-His coated, detection anti-NGAL-HRP
T2 construct: Bought; not shown: C-terminal polyhistidine tag
T2 sequence (looked up): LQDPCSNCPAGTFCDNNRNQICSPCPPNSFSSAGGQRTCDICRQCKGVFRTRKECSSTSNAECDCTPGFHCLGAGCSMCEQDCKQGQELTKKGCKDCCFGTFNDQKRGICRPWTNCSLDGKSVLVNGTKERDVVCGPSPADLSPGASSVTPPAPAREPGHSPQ
Method: Recombinant hu4-1BB-His (human 4-1BB with a C-terminal polyhistidine tag, R&D Systems) at the concentration of 1 μg/mL in PBS was coated overnight on microtiter plates at 4° C. After washing with PBS-0.05% T (PBS supplemented with 0.05% (v/v) Tween 20), the plates were blocked with 2% BSA (w/v) in PBS-0.1% T (PBS supplemented with 0.1% (v/v) Tween 20) for 1 h at room temperature. After washing with 100 μL PBS-0.05% T five times, exemplary multimeric proteins (SEQ ID NOs: 38-44 and 46-53) or 4-1BB-specific lipocalin mutein as included in the multimeric protein (SEQ ID NO: 64) at different concentrations, ranging from 100 to 0.002 nM, were added to the wells and incubated for 1 h at room temperature, followed by another wash step. Bound molecules under study were detected by incubation with 1:1000 diluted anti-NGAL-HRP in PBS-0.1% T-2% BSA. After an additional wash step, fluorogenic HRP substrate (QuantaBlu, Thermo) was added to each well and the fluorescence intensity was detected using a fluorescence microplate reader.
The results of exemplary experiments are depicted in FIG. 2, together with the fit curves resulting from a 1:1 binding sigmoidal fit, where the EC₅₀ value and the maximum signal were free parameters, and the slope was fixed to one. The observed EC₅₀ values toward the hu4-1BB of all tested multimeric proteins were in the sub nanomolar range.

[2] = target: T3, cynomolgus 4-1BB on CHO cells (cynomolgus, UniProt A9YYE7 24-254); assay: flow cytometry, Flp-In-CHO::cyno4-1BB cells
T3 construct: also called Flp-In-CHO::cyno4-1BB; cynomolgus 4-1BB-expressing CHO cells
Method: as §1, §2

hu4-1BB-Fc (R&D Systems) = target: T4, hu4-1BB-Fc (R&D Systems) (human, UniProt Q07011 24-186); assay: SPR (Biacore 8K), hu4-1BB-Fc captured by anti-human IgG Fc; apparent value, 1:1 fit
T4 construct: Bought; also called human 4-1BB; not shown: human IgG Fc of the bought fusion
T4 sequence (looked up): T2 sequence (looked up)
Method: The anti-human IgG Fc antibody (GE Healthcare) was immobilized on a CM5 sensor chip using standard amine chemistry: the carboxyl groups on the chip were activated using 1-ethyl-3-(3-dimethylaminopropyl)-carbodiimide (EDC) and N-hydroxysuccinimide (NHS). Subsequently, anti-human IgG Fc antibody solution (GE Healthcare) at a concentration of 25 μg/mL in 10 mM sodium acetate (pH 5.0) was applied at a flow rate of 5 μL/min until an immobilization level of 4000-10000 resonance units (RU) was achieved. Residual non-reacted NHS-esters were blocked by passing a solution of 1 M ethanolamine across the surface. The reference channel was treated in an analogous manner. Subsequently, hu4-1BB-Fc (R&D Systems) at 0.3 μg/mL was captured by the anti-human IgG-Fc antibody at the chip surface for 180 s at a flow rate of 10 μL/min.
The binding assay was carried out with a contact time of 180 s, a dissociation time of 1200 s or 3000 s and a flow rate of 30 μL/min. All measurements were performed at 25° C. Lipocalin mutein SEQ ID NO: 64 as included in the multimeric proteins was also tested as […]. […] Prior to the protein measurements, three startup cycles were performed for conditioning purposes. Data were evaluated with Biacore Evaluation software. Double referencing was used and the 1:1 binding model was used to fit the raw data.

EC50 (human 4-1BB on cells): 2.89 nM | EC50 [1]: 0.16 nM | EC50 [2]: 4.46 nM | Kd (hu4-1BB-Fc (R&D Systems)): 0.24 nM | koff (hu4-1BB-Fc (R&D Systems)): 3.18e-05 s⁻¹ | kon (hu4-1BB-Fc (R&D Systems)): 133000 M⁻¹ s⁻¹
B1: multimeric protein SEQ ID NO: 46 (designed binder)
chain: QDSTSDLIPAPPLSKVPLQQNFQDNQFHGKWYVVGQAGNIRLREDKDPIKMMATIYELKEDKSYDVTMVKFDDKKCMYDIWTFVPGSQPGEFTLGKIKSFPGHTSSLVRVVSTNYNQHAMVFFKFVFQNREEFYITLYGRTKELTSELKENFIRFSKSLGLPENHIVFPVPIDQCIDGGGGGSGGGGSGGGGSRLKQIEDKLEEILSKLYHIENELARIKKLLGERGGSGGAPEQKLISEEDLGSHHHHHHHHHH
